According to US9056842B2, “Cosmetic use of substituted amino heterocylic carbamoyl analogs and related compounds” (Avon Products, Inc., priority 2011, dated 2015):
For at least one compound, name, drawing or mass did not settle the structure.

Test system: Human dermal fibroblasts
Assay: Stimulation of collagen synthesis, procollagen type I C-peptide (PIP) EIA on conditioned medium
Assay type: cell-based
Details: compound at 0.0005%, 48-hour incubation, versus DMSO control
Method: Human dermal fibroblasts (Cascade Biologics, Portland, Oreg.) were plated at 10,000 cells/well in 96-well culture plates in supplemented medium (DMEM, 10% Fetal Bovine Serum, 1% Penicillin/Streptomycin and 1% L-Glutamine) overnight in humidified atmosphere of 10% CO2 at 37° C. […] DMSO solution was used a control. Following 48-hour incubation, the plates were removed from the incubator and the medium from each well was collected for the procollagen assay. Collagen production was measured using procollagen type I C-peptide (PIP) EIA kit (Takara Bio, Inc., Japan). […] The ELISA plate was incubated at 37° C. for 3 hours before the wells were washed four times with 400 μl of 1×PBS. At the end of wash, 100 μl of substrate solution (supplied with kit) was added to the wells and incubated at room temperature for 15 minutes. The reaction was stopped by adding 100 μl of 1N sulfuric acid to the wells. The absorbance was measured on a spectrophotometer at 450 nm wavelength. The amount of procollagen peptide in the conditioned medium was calculated from the standard curve. The stimulation of collagen production was shown as an increase in collagen over the control.

SMILES: CCOCCCNC(=O)c1coc(CN(CCCOCC)C(=O)c2cccc(Br)c2)n1 [Compound 1]
- stimulation of collagen synthesis (in words): potent stimulators of collagen synthesis
